# Assay results: patent publication US4183909A (Richter Gedeon Vegyeszeti Gyar Rt., priority 1976, dated 1980)
# Strings that start with PEPTIDE1 are HELM notation: dots part the residues, brackets hold end groups and non-standard residues. Square brackets hold non-standard residues; d marks the D form. * marks the point of attachment. dPhg = N[C@@H](C(=O)O)c1ccccc1; Phg = N[C@H](C(=O)O)c1ccccc1; Nle = CCCC[C@H](N)C(=O)O; Nva = CCC[C@H](N)C(=O)O; Boc = CC(C)(C)OC(=O)*
# Assay: general procedure: solution-phase peptide synthesis; active esters (BOC-Trp-OSu, BOC-OGly-OPCP, BOC-D-OAla-OPCP) with triethylamine i
# Conditions: coupling step
row,Substance,step yield
1,BOC-OGly-Trp-Leu-Asp-D-Phg-NH2,31.3%
2,BOC-OGly-Trp-Leu-Asp-L-Phg-NH2,40.5%
3,BOC-OGly-Trp-Met-Asp-D-Phg-NH2,41.4%
4,BOC-OGly-Trp-Met-Asp-L-Phg-NH2,37.2%
5,BOC-Trp(For)-L-Ade-Asp-D-Phg-NH2,92.0%
6,BOC-Trp-D-Ade-L-Asp-D-Phg-NH2,80.4%
7,BOC-Trp-Met-As-D-Phg-NH2,95.8%
8,Boc-WLD[Phg]-NH2,65%
9,Boc-WLD[dPhg]-NH2,72.8%
10,Boc-WMD[Phg]-NH2,97.9%
11,Boc-W[Nle]D[dPhg]-NH2,97.5%
12,Boc-W[Nva]D[dPhg]-NH2,66.2%
13,PEPTIDE1{[Boc].[D-OAla].W.L.D.[D-Phg].[am]}$$$$V2.0,56%
14,PEPTIDE1{[Boc].[D-OAla].W.L.D.[L-Phg].[am]}$$$$V2.0,34.2%
15,PEPTIDE1{[Boc].[D-OAla].W.M.D.[D-Phg].[am]}$$$$V2.0,53.5%
16,PEPTIDE1{[Boc].[D-OAla].W.M.D.[L-Phg].[am]}$$$$V2.0,56%

# Same assay, conditions: late stage modification step
row,Substance,step yield
1,H-Trp-Leu-Asp-L-PHg-NH2,61%
2,H-WLD[dPhg]-NH2,93.7%
3,H-WMD[Phg]-NH2,76.5%
4,H-WMD[dPhg]-NH2,78%

# Same assay, conditions: late stage modification step, HCl
row,Substance,step yield
1,H-Trp-D-Ade-Asp-D-Phg-NH2.HCl,93.8%
2,H-Trp-L-Ade-Asp-D-Phg-NH2.HCl,98%
3,H-Trp-Nle-Asp-D-Phg-NH2.HCl,99.0%
4,H-Trp-Nva-Asp-D-Phg-NH2.HCl,99.0%
